Consider 1 substance from PMC3223157.

Sequences of proteins named here, by UniProt entry; tags and fusion partners are left off. A change or cut given only in a name is not applied to a line headed by its entry.
UniProt Q14790: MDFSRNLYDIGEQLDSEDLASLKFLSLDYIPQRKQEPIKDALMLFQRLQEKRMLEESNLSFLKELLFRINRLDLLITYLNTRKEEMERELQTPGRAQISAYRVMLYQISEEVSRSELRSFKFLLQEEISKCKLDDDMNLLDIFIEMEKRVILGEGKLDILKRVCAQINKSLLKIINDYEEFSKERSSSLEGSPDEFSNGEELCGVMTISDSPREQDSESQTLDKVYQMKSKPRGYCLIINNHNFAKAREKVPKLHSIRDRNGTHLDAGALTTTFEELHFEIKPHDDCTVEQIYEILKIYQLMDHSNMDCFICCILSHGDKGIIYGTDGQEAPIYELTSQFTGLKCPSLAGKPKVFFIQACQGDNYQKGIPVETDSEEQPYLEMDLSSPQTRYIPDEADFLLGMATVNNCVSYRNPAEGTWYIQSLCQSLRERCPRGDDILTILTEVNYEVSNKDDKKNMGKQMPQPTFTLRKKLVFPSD
UniProt P55211: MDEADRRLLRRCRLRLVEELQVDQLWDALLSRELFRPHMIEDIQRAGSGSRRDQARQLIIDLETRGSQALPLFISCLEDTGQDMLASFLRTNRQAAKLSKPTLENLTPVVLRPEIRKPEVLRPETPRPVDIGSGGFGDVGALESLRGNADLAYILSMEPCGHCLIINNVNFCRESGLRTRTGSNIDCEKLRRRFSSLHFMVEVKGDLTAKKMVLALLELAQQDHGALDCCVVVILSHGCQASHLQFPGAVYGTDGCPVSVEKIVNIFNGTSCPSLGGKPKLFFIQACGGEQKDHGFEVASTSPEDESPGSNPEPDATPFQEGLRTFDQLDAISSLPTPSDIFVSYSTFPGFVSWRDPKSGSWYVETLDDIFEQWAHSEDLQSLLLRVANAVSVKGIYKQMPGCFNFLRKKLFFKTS

The assay deals with caspase 8 (A549 cells) (human (endogenous in A549)) (UniProt Q14790). Briefly: co-IP; cytosolic extract of A549 cells incubated with PBS, AdGFP or AdHSP for 24 h, then 20 ng/ml TNFalpha for 30 min; rabbit polyclonal anti-caspase 8 (1:200); immunoblot.

No constants are given. Whether binding was seen depends on the method and setting. In cells and extracts the contact can be indirect. Binding can be weak; no strength is given.

On to “caspase 9 (A549 cells) (from UniProt P55211) (enzyme)”, for which the binding result was “binds”.
